Reference: PubChem BioAssay AID652243 (Drosophila RNAi Screening Center, 2013)

Purpose: 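Knock-downs that decrease or increase androgen receptor reporter signal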 (primary screen)
Cell system: Drosophila S2R+ cells
Reagent: long dsRNA against Drosophila genes
Duration: 72 h (48 h, then 24 h hormone)
Challenge: synthetic androgen R1881 at 10 nM for 24 h
Measured: 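Firefly light from an androgen-responsive reporter and Renilla control light per well, raw and unnormalised, for each of two replicates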
Reading the numbers: firefly reporter light: higher = more light from androgen-responsive reporter; Renilla control light: higher = more constitutive control signal (cell number, transfection)
Active means: 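Hit when the log firefly-to-Renilla ratio dropped or increased by a fixed fold versus the mean of GFP or LacZ controls across duplicate plates; lowering cut given as 1.5 and as 3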
Meaning of the calls: active = hit: reporter lowered or raised; inactive = no hit
The screen tested about 24,000 reagents; shown is a random part of those that have a named target and a result. Over the whole deposit, 246 (1%) were called active. 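Plates not normalised; calls are printed but the firefly/Renilla ratio behind them is not deposited; fold cut for lowering reported inconsistently.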 Raw values are not corrected between plates. Unmarked entries are inactive. A plus sign joins genes that one reagent is predicted to hit. The record does not give: the amount of reagent.

gene | dsRNA | firefly reporter light, replicate 1 | firefly reporter light, replicate 2 | Renilla control light, replicate 1 | Renilla control light, replicate 2
CG32413 | DRSC21591 | 5.81e5 | 5.38e5 | 2.74e6 | 2.83e6
CG40930 (retired record) | DRSC38610 | 5.89e5 | 5.69e5 | 1.50e6 | 1.73e6
CG12511 | DRSC02171 | 1.52e5 | 1.57e5 | 1.59e6 | 1.40e6
CG11566 (retired record) + stg1 | DRSC20473 | 19073 | 5776 | 1.28e5 | 82024
CG11566 (retired record) + stg1 | DRSC20481 | 2.41e5 | 90667 | 6.69e5 | 4.46e5
CG11566 (retired record) + stg1 | DRSC20482 | 3.71e5 | 1.66e5 | 7.39e5 | 6.17e5
CG11566 (retired record) + stg1 | DRSC20483 | 2.85e5 | 2.16e5 | 9.12e5 | 6.71e5
CG34258 | DRSC38685 | 1.95e6 | 1.92e6 | 1.69e6 | 2.19e6
CG31797 | DRSC02476 | 1.28e5 | 91976 | 8.58e5 | 6.05e5
CG31797 | DRSC02477 | 1.73e5 | 1.63e5 | 1.92e6 | 1.93e6

Next part, starting with the last 3 of the part before.
gene | dsRNA | firefly reporter light, replicate 1 | firefly reporter light, replicate 2 | Renilla control light, replicate 1 | Renilla control light, replicate 2
CG34258 | DRSC38685 | 1.95e6 | 1.92e6 | 1.69e6 | 2.19e6
CG31797 | DRSC02476 | 1.28e5 | 91976 | 8.58e5 | 6.05e5
CG31797 | DRSC02477 | 1.73e5 | 1.63e5 | 1.92e6 | 1.93e6
CG10628 | DRSC02080 | 1.08e5 | 1.39e5 | 9.68e5 | 1.55e6
POLDIP2 (Polymerase (DNA-directed), delta interacting protein 2) | DRSC12194 | 26771 | 60680 | 2.84e5 | 2.68e5
ems (empty spiracles) | DRSC25044 | 8.58e5 | 4.22e5 | 7.93e5 | 6.47e5
CG6414 | DRSC18401 | 2.16e5 | 1.79e5 | 2.53e6 | 2.39e6
CG10274 | DRSC09716 | 9.43e5 | 5.15e5 | 1.46e6 | 1.04e6
CG10274 | DRSC24792 | 8.02e5 | 7.75e5 | 8.65e5 | 8.67e5
eIF3f1 (eukaryotic translation initiation factor 3 subunit f1) | DRSC12328 | 1.07e5 | 88748 | 2.16e6 | 2.02e6
eIF3f1 (eukaryotic translation initiation factor 3 subunit f1) | DRSC26155 | 2.51e5 | 1.71e5 | 3.58e5 | 3.32e5
maca | DRSC15738 | 76735 | 1.04e5 | 1.10e6 | 1.03e6
CG11617 | DRSC00321 | 32533 | 35420 | 2.46e5 | 3.06e5
CG11617 | DRSC21786 | 2.73e5 | 2.65e5 | 1.75e6 | 2.00e6
CG11617 | DRSC28154 | 4.29e5 | 4.52e5 | 1.18e6 | 1.60e6
Vps37B (Vacuolar protein sorting 37B) | DRSC12165 | 28496 | 24787 | 4.13e5 | 2.96e5
cnk (connector enhancer of ksr) | DRSC07595 | 1.06e5 | 1.43e5 | 2.38e6 | 2.38e6
